These are yes or no findings as the source states them, for the method shown. In cells and extracts the contact can be indirect. Here binding means that the protein was enriched with, or labelled near, the bait; the list need not be complete.
Target: EGFR-flag-TurboID (EGFR-TurboID fusion construct, HeLa clone T1) (UniProt P00533)
Assay: proximity labelling

Binder	binding
synergin gamma (SYNRG) (protein, UniProt Q9UMZ2 1-1314) MALRPGAGSGGGGAAGAGAGSAGGGGFMFPVAGGIRPPQAGLMPMQQQGFPMVSVMQPNMQGIMGMNYSSQMSQGPIAMQAGIPMGPMPAAGMPYLGQAPFLGMRPPGPQYTPDMQKQFAEEQQKRFEQQQKLLEEERKRRQFEEQKQKLRLLSSVKPKTGEKSRDDALEAIKGNLDGFSRDAKMHPTPASHPKKPGPSLEEKFLVSCDISTSGQEQIKLNTSEVGHKALGPGSSKKYPSLMASNGVAVDGCVSGTTTAEAENTSDQNLSIEESGVGVFPSQDPAQPRMPPWIYNESLVPDAYKKILETTMTPTGIDTAKLYPILMSSGLPRETLGQIWALANRTTPGKLTKEELYTVLAMIAVTQRGVPAMSPDALNQFPAAPIPTLSGFSMTLPTPVSQPTVIPSGPAGSMPLSLGQPVMGINLVGPVGGAAAQASSGFIPTYPANQVVKPEEDDFQDFQDASKSGSLDDSFSDFQELPASSKTSNSQHGNSAPSLLMPLPGTKALPSMDKYAVFKGIAADKSSENTVPPGDPGDKYSAFRELEQTAENKPLGESFAEFRSAGTDDGFTDFKTADSVSPLEPPTKDKTFPPSFPSGTIQQKQQTQVKNPLNLADLDMFSSVNCSSEKPLSFSAVFSTSKSVSTPQSTGSAATMTALAATKTSSLADDFGEFSLFGEYSGLAPVGEQDDFADFMAFSNSSISSEQKPDDKYDALKEEASPVPLTSNVGSTVKGGQNSTAASTKYDVFRQLSLEGSGLGVEDLKDNTPSGKSDDDFADFHSSKFSSINSDKSLGEKAVAFRHTKEDSASVKSLDLPSIGGSSVGKEDSEDALSVQFDMKLADVGGDLKHVMSDSSLDLPTVSGQHPPAADIEDLKYAAFGSYSSNFAVSTLTSYDWSDRDDATQGRKLSPFVLSAGSGSPSATSILQKKETSFGSSENITMTSLSKVTTFVSEDALPETTFPALASFKDTIPQTSEQKEYENRDYKDFTKQDLPTAERSQEATCPSPASSGASQETPNECSDDFGEFQSEKPKISKFDFLVATSQSKMKSSEEMIKSELATFDLSVQGSHKRSLSLGDKEISRSSPSPALEQPFRDRSNTLNEKPALPVIRDKYKDLTGEVEENERYAYEWQRCLGSALNVIKKANDTLNGISSSSVCTEVIQSAQGMEYLLGVVEVYRVTKRVELGIKATAVCSEKLQQLLKDIDKVWNNLIGFMSLATLTPDENSLDFSSCMLRPGIKNAQELACGVCLLNVDSRSRKEEKPAEEHPKKAFNSETDSFKLAYGGHQYHASCANFWINCVEPKPPGLVLPDLL	binds
USP8 (protein, UniProt P40818 1-1118) MPAVASVPKELYLSSSLKDLNKKTEVKPEKISTKSYVHSALKIFKTAEECRLDRDEERAYVLYMKYVTVYNLIKKRPDFKQQQDYFHSILGPGNIKKAVEEAERLSESLKLRYEEAEVRKKLEEKDRQEEAQRLQQKRQETGREDGGTLAKGSLENVLDSKDKTQKSNGEKNEKCETKEKGAITAKELYTMMTDKNISLIIMDARRMQDYQDSCILHSLSVPEEAISPGVTASWIEAHLPDDSKDTWKKRGNVEYVVLLDWFSSAKDLQIGTTLRSLKDALFKWESKTVLRNEPLVLEGGYENWLLCYPQYTTNAKVTPPPRRQNEEVSISLDFTYPSLEESIPSKPAAQTPPASIEVDENIELISGQNERMGPLNISTPVEPVAASKSDVSPIIQPVPSIKNVPQIDRTKKPAVKLPEEHRIKSESTNHEQQSPQSGKVIPDRSTKPVVFSPTLMLTDEEKARIHAETALLMEKNKQEKELRERQQEEQKEKLRKEEQEQKAKKKQEAEENEITEKQQKAKEEMEKKESEQAKKEDKETSAKRGKEITGVKRQSKSEHETSDAKKSVEDRGKRCPTPEIQKKSTGDVPHTSVTGDSGSGKPFKIKGQPESGILRTGTFREDTDDTERNKAQREPLTRARSEEMGRIVPGLPSGWAKFLDPITGTFRYYHSPTNTVHMYPPEMAPSSAPPSTPPTHKAKPQIPAERDREPSKLKRSYSSPDITQAIQEEEKRKPTVTPTVNRENKPTCYPKAEISRLSASQIRNLNPVFGGSGPALTGLRNLGNTCYMNSILQCLCNAPHLADYFNRNCYQDDINRSNLLGHKGEVAEEFGIIMKALWTGQYRYISPKDFKITIGKINDQFAGYSQQDSQELLLFLMDGLHEDLNKADNRKRYKEENNDHLDDFKAAEHAWQKHKQLNESIIVALFQGQFKSTVQCLTCHKKSRTFEAFMYLSLPLASTSKCTLQDCLRLFSKEEKLTDNNRFYCSHCRARRDSLKKIEIWKLPPVLLVHLKRFSYDGRWKQKLQTSVDFPLENLDLSQYVIGPKNNLKKYNLFSVSNHYGGLDGGHYTAYCKNAARQRWFKFDDHEVSDISVSSVKSSAAYILFYTSLGPRVTDVAT	binds
SH3BP1 (protein, UniProt Q9Y3L3 1-701) MMKRQLHRMRQLAQTGSLGRTPETAEFLGEDLLQVEQRLEPAKRAAHNIHKRLQACLQGQSGADMDKRVKKLPLMALSTTMAESFKELDPDSSMGKALEMSCAIQNQLARILAEFEMTLERDVLQPLSRLSEEELPAILKHKKSLQKLVSDWNTLKSRLSQATKNSGSSQGLGGSPGSHSHTTMANKVETLKEEEEELKRKVEQCRDEYLADLYHFVTKEDSYANYFIRLLEIQADYHRRSLSSLDTALAELRENHGQADHSPSMTATHFPRVYGVSLATHLQELGREIALPIEACVMMLLSEGMKEEGLFRLAAGASVLKRLKQTMASDPHSLEEFCSDPHAVAGALKSYLRELPEPLMTFDLYDDWMRAASLKEPGARLQALQEVCSRLPPENLSNLRYLMKFLARLAEEQEVNKMTPSNIAIVLGPNLLWPPEKEGDQAQLDAASVSSIQVVGVVEALIQSADTLFPGDINFNVSGLFSAVTLQDTVSDRLASEELPSTAVPTPATTPAPAPAPAPAPAPALASAATKERTESEVPPRPASPKVTRSPPETAAPVEDMARRTKRPAPARPTMPPPQVSGSRSSPPAPPLPPGSGSPGTPQALPRRLVGSSLRAPTVPPPLPPTPPQPARRQSRRSPASPSPASPGPASPSPVSLSNPAQVDLGAATAEGGAPEAISGVPTPPAIPPQPRPRSLASETN	binds

The next lines start with the values.

binding	Binder
binds	EPN2 (protein, UniProt O95208 1-641) MTTSSIRRQMKNIVNNYSEAEIKVREATSNDPWGPSSSLMTEIADLTYNVVAFSEIMSMVWKRLNDHGKNWRHVYKALTLLDYLIKTGSERVAQQCRENIFAIQTLKDFQYIDRDGKDQGINVREKSKQLVALLKDEERLKAERAQALKTKERMAQVATGMGSNQITFGRGSSQPNLSTSHSEQEYGKAGGSPASYHGSPEASLCPQHRTGAPLGQSEELQPLSQRHPFLPHLGLASRPNGDWSQPCLTCDRAARATSPRVSSELEQARPQTSGEEELQLQLALAMSREVAEQEERLRRGDDLRLQMALEESRRDTVKIPKKKEHGSLPQQTTLLDLMDALPSSGPAAQKAEPWGPSASTNQTNPWGGPAAPASTSDPWPSFGTKPAASIDPWGVPTGATVQSVPKNSDPWAASQQPASSAGKRASDAWGAVSTTKPVSVSGSFELFSNLNGTIKDDFSEFDNLRTSKKTAESVTSLPSQNNGTTSPDPFESQPLTVASSKPSSARKTPESFLGPNAALVNLDSLVTRPAPPAQSLNPFLAPGAPATSAPVNPFQVNQPQPLTLNQLRGSPVLGTSTSFGPGPGVESMAVASMTSAAPQPALGATGSSLTPLGPAMMNMVGSVGIPPSAAQATGTTNPFLL
binds	EPN3 (protein, UniProt Q9H201 1-632) MTTSALRRQVKNIVHNYSEAEIKVREATSNDPWGPPSSLMSEIADLTFNTVAFTEVMGMLWRRLNDSGKNWRHVYKALTLLDYLLKTGSERVAHQCRENLYTIQTLKDFQYIDRDGKDQGVNVREKVKQVMALLKDEERLRQERTHALKTKERMALEGIGIGSGQLGFSRRYGEDYSRSRGSPSSYNSSSSSPRYTSDLEQARPQTSGEEELQLQLALAMSREEAEKPVPPASHRDEDLQLQLALRLSRQEHEKEVRSWQGDGSPMANGAGAVVHHQRDREPEREERKEEEKLKTSQSSILDLADIFVPALAPPSTHCSADPWDIPGFRPNTEASGSSWGPSADPWSPIPSGTVLSRSQPWDLTPMLSSSEPWGRTPVLPAGPPTTDPWALNSPHHKLPSTGADPWGASLETSDTPGGASTFDPFAKPPESTETKEGLEQALPSGKPSSPVELDLFGDPSPSSKQNGTKEPDALDLGILGEALTQPSKEARACRTPESFLGPSASSLVNLDSLVKAPQVAKTRNPFLTGLSAPSPTNPFGAGEPGRPTLNQMRTGSPALGLAGGPVGAPLGSMTYSASLPLPLSSVPAGLTLPASVSVFPQAGAFAPQPLLPTPSSAGPRPPPPQTGTNPFL
